Our source for the binding values is publication PMC10450186.

By UniProt entry, the sequences of proteins in these tests, tags left out. Where a name states a change or a piece, a line headed by the entry shows the natural chain unless it says otherwise.
UniProt P15927: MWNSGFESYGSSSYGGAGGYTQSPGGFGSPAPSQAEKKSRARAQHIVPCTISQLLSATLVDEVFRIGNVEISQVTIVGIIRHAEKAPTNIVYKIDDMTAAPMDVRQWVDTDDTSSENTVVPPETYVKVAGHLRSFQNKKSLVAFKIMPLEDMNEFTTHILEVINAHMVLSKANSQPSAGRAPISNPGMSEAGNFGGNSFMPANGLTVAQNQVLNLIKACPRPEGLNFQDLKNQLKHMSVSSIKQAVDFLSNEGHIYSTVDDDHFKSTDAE
UniProt P35244: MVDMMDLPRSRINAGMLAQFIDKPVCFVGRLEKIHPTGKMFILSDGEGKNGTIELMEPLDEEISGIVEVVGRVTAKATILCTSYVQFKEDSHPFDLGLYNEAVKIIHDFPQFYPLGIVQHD

These are yes or no findings as the source states them, for the method shown. Tags and fused reporters may be left off the sequences shown.

The target in the assay is RPA trimer consisting of the RPA70, RPA32 and RPA14 subunits, purified (human) (UniProt P27694+P15927+P35244). The assay is described as follows: native gel or EMSA; NSMF-eGFP with unlabeled RPA bound to Cy5-labeled ssDNA; reaction buffer 50 mM Tris-HCl [7.5], 50 mM NaCl, 1 mM DTT, 0.01% Tween-20, 23°C; both purified. On the technique in general: A gel shift assay detects complexes by their altered migration in electrophoresis.

B1: full-length NSMF tagged with 3×FLAG at the N-terminus and eGFP at the C-terminus, purified (protein, UniProt Q6X4W1 1-530)
chain: MGAAASRRRALRSEAMSSVAAKVRAARAFGEYLSQSHPENRNGADHLLADAYSGHDGSPEMQPAPQNKRRLSLVSNGCYEGSLSEEPSIRKPAGEGPQPRVYTISGEPALLPSPEAEAIELAVVKGRRQRHPHHHSQPLRASPGGSREDVSRPCQSWAGSRQGSKECPGCAQLAPGPTPRAFGLDQPPLPETSGRRKKLERMYSVDRVSDDIPIRTWFPKENLFSFQTATTTMQAISVFRGYAERKRRKRENDSASVIQRNFRKHLRMVGSRRVKAQTFAERRERSFSRSWSDPTPMKADTSHDSRDSSDLQSSHCTLDEAFEDLDWDTEKGLEAVACDTEGFVPPKVMLISSKVPKAEYIPTIIRRDDPSIIPILYDHEHATFEDILEEIERKLNVYHKGAKIWKMLIFCQGGPGHLYLLKNKVATFAKVEKEEDMIHFWKRLSRLMSKVNPEPNVIHIMGCYILGNPNGEKLFQNLRTLMTPYRVTFESPLELSAQGKQMIETYFDFRLYRLWKSRQHSKLLDFDDVL
Consider B1, for which the binding entry is reported as “no binding (condition: RPA bound to Cy5-labeled ssDNA)”.
